# From PubChem BioAssay AID2013 (Sanford-Burnham Center for Chemical Genomics, 2009)
# Chains of the proteins cited; added tags and fusions are not shown. Lines headed by an entry give the natural chain unless they say otherwise; changes in a name come on top.
# UniProt Q9Y2T6: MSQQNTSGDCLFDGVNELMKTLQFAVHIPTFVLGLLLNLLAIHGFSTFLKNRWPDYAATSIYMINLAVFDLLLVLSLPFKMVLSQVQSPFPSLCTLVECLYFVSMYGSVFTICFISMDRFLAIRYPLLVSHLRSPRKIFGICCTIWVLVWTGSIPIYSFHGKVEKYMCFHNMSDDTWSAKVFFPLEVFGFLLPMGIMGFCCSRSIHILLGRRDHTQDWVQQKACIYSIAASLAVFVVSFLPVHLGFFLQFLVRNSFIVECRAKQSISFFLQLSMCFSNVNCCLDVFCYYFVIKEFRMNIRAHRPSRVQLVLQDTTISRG
# In all, about 290,000 compounds went through this assay and about 370 (0.13%) were called active. This list was built around the results that the source calls inconclusive (neither active nor inactive); the mix of calls is not that of the screen.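 The calls were made as follows: active = spots per cell inhibited over 60%, with over 100 cells counted and total cytoplasm intensity under 500,000; inconclusive = wells with under 100 cells, flagged as likely toxic; inactive = the rest.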
# Target: G-protein coupled receptor 55 (Homo sapiens) (UniProt Q9Y2T6)
# Test: inhibition of LPI-stimulated GPR55 beta-arrestin translocation – imaging, U2OS, beta-arrestin-GFP, LPI agonist, primary screen (AID 2013);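 also: U2OS cells stably carrying GPR55 and arrestin-GFP stimulated by 5 µM LPI near EC80; imaged beta-arrestin-GFP aggregate spots per cell after agonist stimulation; plate controls were LPI-stimulated DMSO wells for no effect and DMSO wells without LPI for full effect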
# Conditions: LPI antagonism, at 10 µM, active compounds read high
row,SMILES,inhibition
1,NS(=O)(=O)c1ccc(NC(=S)Nc2ccc(C(=O)N3CCCCC3)cc2)cc1,inactive: 0.7%
2,Cn1c(=O)c(NC2CCCCC2)c2c3c(cccc31)C(=O)c1ccccc1-2,inconclusive: 99.5%
3,Cc1[nH]c(=O)[nH]c(=O)c1Sc1ccccc1[N+](=O)[O-],inconclusive: 26.6%
4,CCOC(=O)CC1C(=O)NCCN1c1nc2c(C)cccn2c(=O)c1/C=C1\SC(=S)N(CC(C)C)C1=O (stereo unspecified),inconclusive: 84.2%
5,CC1(C)Cc2ccccc2-c2nc3ccccc3c(=O)n21,inactive: 0.3%
6,CCCSc1ncc(Cl)c(C(=O)Nc2ccc(S(=O)(=O)Nc3ncccn3)cc2)n1,inactive: 7.3%
7,Cc1ccc(N(CC(=O)NCCc2ccc(F)cc2)S(=O)(=O)c2ccc(Cl)c([N+](=O)[O-])c2)c(C)c1,active: 65.4%
8,N#Cc1c(N)nc2c(c1-c1cccc(O)c1)CCCCCC2,active: 76%
9,CC1CCCC(NC(=O)CCS(=O)(=O)c2ccc3c(c2)NC(=O)CS3)C1C (stereo unspecified),inconclusive: 103%
10,O=C1/C(=C\c2cc(Cl)c(O)c(Cl)c2)SC(=S)N1Cc1ccccc1,inconclusive: 103%
11,Cn1c(C(=O)N[C@@H](Cc2ccccc2)C(=O)NCCC(=O)O)cc2cc(Cl)ccc21,inactive: 2.2%
12,CCN1/C(=C/C=C/c2oc3ccc4ccccc4c3[n+]2CC)Oc2ccc3ccccc3c21,inconclusive: 103%
13,CC1CCCN(C(=O)Cn2nnc(-c3ccccc3F)n2)C1 (stereo unspecified),inactive: 4.4%
14,CCN(CC)c1ccc(/C=c2\sc3nnc(-c4ccccc4Cl)n3c2=O)cc1,inconclusive: 44.1%
15,COc1ccccc1N1CCN(C2=Nc3cccc4cccc2c34)CC1,active: 95.5%
16,COc1ccc(NC(=O)/C(Cl)=C(/Cl)S(=O)(=O)Cc2ccccc2)cn1,active: 93.7%
17,CCCCc1ccc(/C=C2\C(=O)c3ccccc3C(O)=C2C(=O)OCC)cc1,inconclusive: 56.2%
18,Cc1ccccc1-c1nc2cc(NC(=O)C3CC3)ccc2o1,inconclusive: 103%
19,CC1CCN(S(=O)(=O)c2ccc(NC(=O)C3CCN(C(=O)c4ccco4)CC3)cc2)CC1,inconclusive: 79.9%

# Two entries from above, with bars between the fields.
row | SMILES | inhibition
2 | Cn1c(=O)c(NC2CCCCC2)c2c3c(cccc31)C(=O)c1ccccc1-2 | inconclusive: 99.5%
14 | CCN(CC)c1ccc(/C=c2\sc3nnc(-c4ccccc4Cl)n3c2=O)cc1 | inconclusive: 44.1%

# (next part)

row,SMILES,inhibition
1,COc1cccc(C(=O)NCc2cccnc2)c1,inconclusive: 104%
2,CCC(=O)c1cn(CC(=O)Nc2ccccc2Cl)c2ccccc12,inconclusive: 61.6%
3,Cc1cc(C(=O)NCC23CC4CC(CC(C4)C2)C3)c(C)o1,active: 72.6%
4,Oc1c(Cl)cc(Cl)cc1C=Nc1ccccc1N1CCCC1,inconclusive: 77.3%
5,COc1ccc(CNC(=O)CCc2c(C)nc3cc(-c4ccccc4OC)nn3c2C)cc1,inactive: 12.4%
6,COc1ccc(CC(=O)Nc2ccc(S(=O)(=O)Nc3cc(OC)nc(OC)n3)cc2)cc1,inconclusive: 79.8%
7,CC(C)S(=O)(=O)c1cnc(-c2cccnc2)nc1N,inconclusive: 104%
8,CCN1/C(=C\c2ccc3ccccc3[n+]2CC)Sc2cc(C)ccc21,inconclusive: 104%
9,O=C(NCc1ccccc1)C(c1ccncc1)N(C(=O)c1csnn1)c1ccccc1F (stereo unspecified),inconclusive: 61.9%
10,N#C/C(=C\c1ccc(N2CCOCC2)o1)C(=O)N1CCOCC1,active: 100%
11,CC(C)(C)c1ccc(S(=O)(=O)Nc2ccc(Cc3ccncc3)cc2)cc1,active: 80.2%
12,COc1ccc(C)cc1S(=O)(=O)N(C)CC(=O)N1CCN(C)CC1,inconclusive: 104%
13,CCc1ccc2oc(C(=O)NC3CCS(=O)(=O)C3)cc(=O)c2c1 (stereo unspecified),inactive: 0.2%
14,N=c1c2c(-c3ccccc3)c(-c3ccccc3)n(Cc3ccco3)c2ncn1Cc1ccccc1,active: 70.9%
15,O=C(c1ccco1)N1CCC(c2nc3c(nnn3Cc3c(Cl)cccc3Cl)c(=O)[nH]2)CC1,inconclusive: -3.7%
16,Cc1cccc(OCC(=O)NC(C)C(=O)N/N=C/c2c(OCc3ccccc3)ccc3ccccc23)c1 (stereo unspecified),inconclusive: 104%
17,CCCCC(O)(CCCC)C(=O)NN(C(=O)c1cccnc1Cl)c1ccccc1,inactive: 6.1%
18,CC(=O)C1=C(C)NC(SCC(=O)c2ccc(C)cc2)=C(C#N)C1c1ccco1 (stereo unspecified),active: 82.9%
19,O=[N+]([O-])c1ccc(N/N=C\c2cccn2-c2ccccc2)nc1,active: 89.6%

row,SMILES,inhibition
1,O=[N+]([O-])c1c(Nc2ccc(O)cc2)cc(Cl)c2nonc12,active: 90.4%
2,COC(CNC(=O)c1ccc2c3c(onc13)-c1ccccc1C2=O)OC,active: 99.4%
3,Cc1cccnc1NC(=O)c1cccc(S(=O)(=O)N2CCCc3ccccc32)c1,inconclusive: 45.6%
4,O=C(Nc1c2c(nn1-c1ccccc1)CS(=O)(=O)C2)C1CCCC1,inconclusive: 50.6%
5,CCCC(=O)N(C1CC(C)C(C#N)(C#N)C1(C#N)C#N)N(C)C (stereo unspecified),active: 98.9%
6,COc1ccc(Cc2nnc(-c3ccccc3)o2)cc1,inactive: -5.3%
7,S=c1[nH]nc(-c2cccc(Br)c2)o1,inconclusive: 103%
8,CCN1CC=C2C(C1)C(c1ccc(Cl)s1)C(C#N)=C(N)C2(C#N)C#N (stereo unspecified),inconclusive: 49.9%
9,COc1cccc(NC(=O)c2nc(SC)ncc2Cl)c1,inconclusive: 49.9%
10,COc1ccc(C(=O)NC(=S)Nc2ccccc2N2CCOCC2)cc1Br,inactive: 0.4%
11,COc1ccc(C(=O)N2N=C(c3cccs3)CC2c2ccccc2O)cc1 (stereo unspecified),inactive: 54.1%
12,O=S1(=O)CC=C(CSC(=S)NC2CCS(=O)(=O)C2)C1 (stereo unspecified),active: 71.8%
13,O=C(CCCN=C1NS(=O)(=O)c2ccccc21)OCC(=O)c1ccc(Br)cc1,inconclusive: 74%
14,CCN1/C(=C\c2ccc3cc(C)ccc3[n+]2CC)Sc2cc(C)c(C)cc21,inconclusive: 100%
15,COc1ccc(C2c3c(oc4ccc(C)cc4c3=O)C(=O)N2c2cc(C)ccn2)cc1OC (stereo unspecified),active: 86.9%
16,CN(c1ccccc1)c1ccc(/C=c2\s/c(=C(/C#N)C(=O)C(C)(C)C)n(Cc3ccco3)c2=O)cc1,active: 74%
17,CC(Nc1c([N+](=O)[O-])c(=O)oc2ccccc12)c1ccccc1 (stereo unspecified),inactive: 10.5%
18,COc1ccc(C)cc1NC(=O)c1ccc(OC(F)F)cc1,inactive: 3.1%

# Look-ups from the results shown:
# `COc1ccc(C(=O)NC(=S)Nc2ccccc2N2CCOCC2)cc1Br` | inhibition: inactive: 0.4%
# `COc1ccc(C)cc1NC(=O)c1ccc(OC(F)F)cc1` | inhibition: inactive: 3.1%
